The text below walks through data of the supplement of paper PMC8256030.

Several values for one entry are separate records, joined by “and”; a condition that tells them apart may be missing. Equal values may be shown once. This is one part of the list. Single values are uncertain here, since repeats match poorly.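 HEK293T cells were given each compound shortly before transfection with a reporter in which red mCherry is followed by the SARS-CoV-2 frameshift element and then GFP in the −1 frame, so GFP appears only after frameshifting.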

This test deals with SARS-CoV-2 -1 PRF reporter mCherry-FSE-GFP(-1). As to the kind of experiment: mCherry (red) intensity as percent of control; higher = higher upstream reporter expression. The note with it: 10 µM; 24 h; HEK293T.
The compound `O=C1NC(c2ccccc2)(c2ccccc2)C(=O)N1COP(=O)(O)O` [fosphenytoin] had a mCherry of 101%. To `CO[C@@H]1[C@@H](OC)[C@H](C)[C@@](O)(CC(=O)O)O[C@H]1[C@H](C)[C@H]1O[C@@]2(CC[C@@](C)([C@H]3CC[C@@](C)([C@@H]4O[C@@H]([C@H]5O[C@](C)(O)[C@H](C)C[C@@H]5C)C[C@@H]4O[C@@H]4C[C@H](OC)[C@@H](OC)[C@H](C)O4)O3)O2)C[C@H](O)[C@H]1C` [maduramicin] belongs 1440%; to `CCCCC[C@](C)(O)/C=C/[C@@H]1[C@@H](C/C=C\CCCC(=O)O)[C@@H](O)C[C@H]1O` [carboprost], 73.4%. Compound `Cc1cc(CC(=O)O)c(C)n1-c1ccc(Cl)cc1` [clopirac] yielded a mCherry of 123%.

With `CC[C@]1(O)C[C@@H]2CN(CCc3c([nH]c4ccccc34)[C@@](C(=O)OC)(c3cc4c(cc3OC)N(C)[C@H]3[C@@](O)(C(=O)OC)[C@H](OC(C)=O)[C@]5(CC)C=CCN6CC[C@]43[C@@H]65)C2)C1` [vinblastine], the mCherry was found to be 74%. The compound `Cc1cccc(C)c1NC(=O)CC12CCCN1CCC2` [pilsicainide] came in with a mCherry of 104%.

As for `O=C(OCc1ccccc1)c1ccccc1`, the mCherry came to 99.9%. `CC(O)CN(CCN(CC(C)O)CC(C)O)CC(C)O` (stereo not given) [edetol]: the mCherry stood at 110%. To `C[C@]12CCC(=O)C=C1CC[C@@H]1[C@@H]2[C@@H](O)C[C@@]2(C)[C@H]1CC[C@]2(O)C(=O)CS` [tixocortol] belongs 98.2%; to `Cc1cc(/C=C/C#N)cc(C)c1Nc1ccnc(Nc2ccc(C#N)cc2)n1` [rilpivirine], 68.4%.

`NS(=O)(=O)c1cc2c(cc1C(F)(F)F)NCNS2(=O)=O` [hydroflumethiazide] had a mCherry of 102%. Under `CNC(=O)COc1cc2cc(Nc3nc(N4C[C@H](C)C[C@H](C)C4)ncc3Cl)ccc2n(C)c1=O` stands 80.1%; under `O=C(O)P(=O)(O)O` [foscarnet sodium], 106%; under `Nc1ccc(S(=O)(=O)Nc2ccccn2)cc1` [sulfapyridine], 126%. For `CC1(CN2CCC(n3c(=O)[nH]c4ccccc43)CC2)OCc2ccccc2-n2cccc21` (stereo not given) [zaldaride], the mCherry is 71.8%. Under `CNC(=N)NC(=O)Nc1c(C)cccc1C` [lidamidine] stands 112%. To `CCC(=O)NC[C@@H]1C[C@H]1c1cccc2c1CCO2` [Tasimelteon] belongs 91.9%; to `CSCC[C@H](NC(=O)[C@H](Cc1c[nH]c2ccccc12)NC(=O)CNC(=O)[C@@H](NC(=O)[C@H](Cc1ccc(OS(=O)(=O)O)cc1)NC(=O)[C@H](CC(=O)O)NC(=O)[C@H](CCC(N)=O)NC(=O)[C@@H]1CCC(=O)N1)[C@@H](C)O)C(=O)N[C@@H](CC(=O)O)C(=O)N[C@@H](Cc1ccccc1)C(N)=O` [ceruletide], 80.3%; to `C[C@@H]1O[C@@H](OC[C@H]2O[C@@H](Oc3c(-c4ccc(OCCO)c(OCCO)c4)oc4cc(OCCO)cc(O)c4c3=O)[C@H](O)[C@@H](O)[C@@H]2O)[C@H](O)[C@H](O)[C@H]1O` [troxerutin], 102%.

In turn, `C[C@]12CC[C@H]3C(=CCc4cc(O)ccc43)[C@@H]1CCC2=O` [Equilin] had a mCherry of 93.1%. The compound `CCOC(=O)c1ccc(N)cc1` [benzocaine] had a mCherry of 139%. Under `CC1=C(C/C=C(\C)CCC[C@H](C)CCC[C@H](C)CCCC(C)C)C(=O)c2ccccc2C1=O` [phytomenadione] stands 79.2%. To `O=C(c1ccccc1)c1ccc2n1CCC2C(=O)O` (stereo not given) [ketorolac] belongs 87.7%.

Take `CC(=O)Nc1nnc(S(N)(=O)=O)s1` [acetazolamide]: the mCherry amounted to 114%.

`CCN(CC)CCOc1ccc2c(c1)C(=O)c1cc(OCCN(CC)CC)ccc1-2` [tilorone] came in with a mCherry of 86.1%.

Regarding `O=C([O-])[C@H](O)[C@@H](O)[C@H](O)[C@H](O)CO.O=C([O-])[C@H](O)[C@@H](O)[C@H](O)[C@H](O)CO.[Ca+2]`, the mCherry was 112%.

As for `CCOc1nc2cccc(C(=O)O)c2n1Cc1ccc(-c2ccccc2-c2nnn[nH]2)cc1` [Candesartan], the mCherry was 108% and 98.5%. `O=C(CCCN1CCC(n2c(=S)[nH]c3ccccc32)CC1)c1ccc(F)cc1` [timiperone]: the mCherry worked out at 50.5%. In the case of `Fc1ccc(Cn2c(NC3CCNCC3)nc3ccccc32)cc1` [tecastemizole], the mCherry worked out at 62.3%. `COc1ccc(NS(=O)(=O)c2ccc(N)cc2)nn1` [sulfamethoxypyridazine] showed a mCherry of 104%. Under `Cc1nc(NS(=O)(=O)c2ccc(N)cc2)oc1C` [sulfamoxole] stands 85%. Under `CS(=O)(=O)Nc1ccc([N+](=O)[O-])cc1Oc1ccccc1` [nimesulide] stands 103% and 87.4%; under `CCOC(=O)CN[C@@H](C(=O)N1CC[C@H]1C(=O)NCc1ccc(/C(N)=N\O)cc1)C1CCCCC1` [ximelagatran], 88%. The compound `CC(C)NC(=N)NC(=N)Nc1ccc(Cl)cc1` gave a mCherry of 104%. `CCN(CC)S(=O)(=O)c1ccc(C(=O)O)cc1` [etebenecid] had a mCherry of 106%. Under `CN1CCC[C@@H]1CCO[C@](C)(c1ccccc1)c1ccc(Cl)cc1` stands 109%; under `O=C1CN(/N=C/c2ccc([N+](=O)[O-])o2)C(=O)N1` [nitrofurantoin], 99.5% and 87.2%. To `Cc1ccc(Cl)c(Nc2ccccc2C(=O)O)c1Cl` belongs 104%; to `O=C(O)c1ccccc1Nc1cccc(Cl)c1Cl` [clofenamic acid], 71%. To `C[C@@H]1C[C@H]2[C@@H]3C[C@H](F)C4=CC(=O)C=C[C@]4(C)[C@H]3[C@@H](O)C[C@]2(C)[C@@]1(O)C(=O)CO` [Paramethasone] belongs 90.2%.
